In PMC9241815, “Role of the Two-Component System CiaRH in the Regulation of Efflux Pump SatAB and Its Correlation with Fluoroquinolone Susceptibility”:
For at least one entry, the source does not settle the construct or the ends of the probe.

Target: CiaR, phosphorylated (UniProt A0A0H3MUU9)
Experiment: EMSA
Conditions: EMSA: Beyotime EMSA binding buffer, 20 min, room temperature, 4% native PAGE, proteins dialyzed in 25 mM Tris pH 7.4, 150 mM NaCl, 5% glycerol, 0.5 mM EDTA, 1 mM DTT, recombinant protein, residues 1-224, protein details: C-terminal 6xHis (from primer, pET-30a(+)), label: biotin 3' end

Sequence | binding result (800 ng CiaR, probe letters rebuilt from the primers and the genome) | binding result (200-800 ng CiaR)
AGGAATCAAGAAATTAAAGCTCAAATTTCAGGAGATAGTAGTTCTTCTAATCAATAAATATTGAGATTTCGATTTTTACTTATTCCATGATATAATGAACTCGTATCAATAAATAGTTAGATAAAGACTACCTTATCATTCATTTTTCAGATGGTCATAGTAGTACTTTATCTAACCATTTCTCTTAAAGACCGTGACCTGTCCCAGGTCTTTGGTTTGTTTATTAAACCGAAACGTAAGGAAGTGTATG (double strand) [ciaR promoter probe] | binds | 
TTGACAATAGTTCTTAAGAGAACTATAATAGTTCTCATGGTAATTATTTTCGTAGAAAG (double strand) [satRAB promoter EMSA probe] |  | binds
